The record followed here is paper PMC9402233.

Amino acid sequences for entries named in this document (tags omitted).
UniProt P38181: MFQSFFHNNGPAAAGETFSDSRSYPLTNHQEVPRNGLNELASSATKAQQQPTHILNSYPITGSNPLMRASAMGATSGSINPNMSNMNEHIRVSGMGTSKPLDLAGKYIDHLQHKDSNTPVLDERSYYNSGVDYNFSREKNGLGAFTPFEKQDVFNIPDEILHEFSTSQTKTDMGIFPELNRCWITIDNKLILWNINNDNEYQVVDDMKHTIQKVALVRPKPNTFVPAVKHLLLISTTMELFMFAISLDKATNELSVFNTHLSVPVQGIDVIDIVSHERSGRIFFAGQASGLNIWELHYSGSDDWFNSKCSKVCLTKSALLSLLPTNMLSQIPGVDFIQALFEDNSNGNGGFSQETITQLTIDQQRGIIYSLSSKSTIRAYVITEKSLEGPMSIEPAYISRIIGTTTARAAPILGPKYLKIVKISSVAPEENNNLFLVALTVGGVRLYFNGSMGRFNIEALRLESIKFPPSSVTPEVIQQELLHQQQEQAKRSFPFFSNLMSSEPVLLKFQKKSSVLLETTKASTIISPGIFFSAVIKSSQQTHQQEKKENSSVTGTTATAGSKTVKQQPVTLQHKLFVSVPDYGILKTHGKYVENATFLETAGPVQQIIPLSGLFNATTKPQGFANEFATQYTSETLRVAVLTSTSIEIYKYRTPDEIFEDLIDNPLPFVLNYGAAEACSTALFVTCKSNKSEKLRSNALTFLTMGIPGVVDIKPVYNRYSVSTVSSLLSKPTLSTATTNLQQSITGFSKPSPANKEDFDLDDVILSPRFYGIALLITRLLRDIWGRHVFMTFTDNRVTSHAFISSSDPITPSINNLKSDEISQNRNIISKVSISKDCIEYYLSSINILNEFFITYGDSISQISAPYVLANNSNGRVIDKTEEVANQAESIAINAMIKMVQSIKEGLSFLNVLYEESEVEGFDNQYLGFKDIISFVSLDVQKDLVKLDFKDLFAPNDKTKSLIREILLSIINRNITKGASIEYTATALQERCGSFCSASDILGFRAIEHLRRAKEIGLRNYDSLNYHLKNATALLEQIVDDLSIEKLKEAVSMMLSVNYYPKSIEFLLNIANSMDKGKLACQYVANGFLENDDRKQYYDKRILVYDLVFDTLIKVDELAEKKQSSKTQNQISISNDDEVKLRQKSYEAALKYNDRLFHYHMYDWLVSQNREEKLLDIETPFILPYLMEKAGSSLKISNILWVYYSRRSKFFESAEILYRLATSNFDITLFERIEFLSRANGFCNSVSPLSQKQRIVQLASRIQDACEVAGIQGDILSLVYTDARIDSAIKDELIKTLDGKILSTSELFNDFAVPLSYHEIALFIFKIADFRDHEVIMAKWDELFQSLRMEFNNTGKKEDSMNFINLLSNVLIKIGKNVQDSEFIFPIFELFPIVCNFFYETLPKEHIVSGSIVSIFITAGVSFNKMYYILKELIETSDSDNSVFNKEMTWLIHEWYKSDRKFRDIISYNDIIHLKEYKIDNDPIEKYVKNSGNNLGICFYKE
UniProt P40477: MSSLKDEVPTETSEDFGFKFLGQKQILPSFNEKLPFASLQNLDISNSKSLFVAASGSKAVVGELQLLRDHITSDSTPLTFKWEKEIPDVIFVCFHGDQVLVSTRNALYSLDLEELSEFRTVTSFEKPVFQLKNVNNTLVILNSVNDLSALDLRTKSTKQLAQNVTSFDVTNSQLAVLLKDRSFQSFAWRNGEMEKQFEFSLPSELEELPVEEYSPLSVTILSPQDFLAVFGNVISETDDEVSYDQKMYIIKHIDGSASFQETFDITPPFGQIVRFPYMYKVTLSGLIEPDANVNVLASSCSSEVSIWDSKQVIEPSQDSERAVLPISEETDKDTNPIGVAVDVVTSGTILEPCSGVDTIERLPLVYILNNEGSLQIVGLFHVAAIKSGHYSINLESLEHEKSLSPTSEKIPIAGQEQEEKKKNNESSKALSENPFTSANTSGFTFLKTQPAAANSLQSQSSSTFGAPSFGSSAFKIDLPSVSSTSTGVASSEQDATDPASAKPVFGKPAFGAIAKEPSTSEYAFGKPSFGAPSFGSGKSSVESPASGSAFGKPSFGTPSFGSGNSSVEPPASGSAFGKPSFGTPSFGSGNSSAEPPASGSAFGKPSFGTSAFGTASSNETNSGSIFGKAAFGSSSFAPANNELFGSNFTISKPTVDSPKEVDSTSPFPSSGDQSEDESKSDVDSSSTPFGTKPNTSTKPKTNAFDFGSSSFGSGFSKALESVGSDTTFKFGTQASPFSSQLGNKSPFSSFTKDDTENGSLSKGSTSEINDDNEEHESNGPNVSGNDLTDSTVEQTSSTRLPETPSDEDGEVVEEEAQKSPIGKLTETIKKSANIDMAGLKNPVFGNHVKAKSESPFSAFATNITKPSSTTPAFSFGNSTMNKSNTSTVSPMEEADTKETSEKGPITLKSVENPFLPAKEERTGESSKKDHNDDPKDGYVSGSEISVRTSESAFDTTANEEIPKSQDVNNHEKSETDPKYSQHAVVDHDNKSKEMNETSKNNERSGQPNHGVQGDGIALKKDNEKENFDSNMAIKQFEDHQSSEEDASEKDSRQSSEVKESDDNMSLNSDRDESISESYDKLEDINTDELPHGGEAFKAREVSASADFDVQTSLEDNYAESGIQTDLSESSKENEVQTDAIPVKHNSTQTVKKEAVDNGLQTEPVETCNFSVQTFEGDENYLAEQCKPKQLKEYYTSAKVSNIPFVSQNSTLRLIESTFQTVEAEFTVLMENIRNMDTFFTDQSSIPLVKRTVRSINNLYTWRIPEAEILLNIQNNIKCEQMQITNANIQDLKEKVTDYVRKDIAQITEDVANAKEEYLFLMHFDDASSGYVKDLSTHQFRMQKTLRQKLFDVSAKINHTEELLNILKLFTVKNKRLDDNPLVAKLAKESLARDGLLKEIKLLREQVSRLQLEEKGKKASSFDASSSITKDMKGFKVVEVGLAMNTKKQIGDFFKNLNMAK
UniProt P40457: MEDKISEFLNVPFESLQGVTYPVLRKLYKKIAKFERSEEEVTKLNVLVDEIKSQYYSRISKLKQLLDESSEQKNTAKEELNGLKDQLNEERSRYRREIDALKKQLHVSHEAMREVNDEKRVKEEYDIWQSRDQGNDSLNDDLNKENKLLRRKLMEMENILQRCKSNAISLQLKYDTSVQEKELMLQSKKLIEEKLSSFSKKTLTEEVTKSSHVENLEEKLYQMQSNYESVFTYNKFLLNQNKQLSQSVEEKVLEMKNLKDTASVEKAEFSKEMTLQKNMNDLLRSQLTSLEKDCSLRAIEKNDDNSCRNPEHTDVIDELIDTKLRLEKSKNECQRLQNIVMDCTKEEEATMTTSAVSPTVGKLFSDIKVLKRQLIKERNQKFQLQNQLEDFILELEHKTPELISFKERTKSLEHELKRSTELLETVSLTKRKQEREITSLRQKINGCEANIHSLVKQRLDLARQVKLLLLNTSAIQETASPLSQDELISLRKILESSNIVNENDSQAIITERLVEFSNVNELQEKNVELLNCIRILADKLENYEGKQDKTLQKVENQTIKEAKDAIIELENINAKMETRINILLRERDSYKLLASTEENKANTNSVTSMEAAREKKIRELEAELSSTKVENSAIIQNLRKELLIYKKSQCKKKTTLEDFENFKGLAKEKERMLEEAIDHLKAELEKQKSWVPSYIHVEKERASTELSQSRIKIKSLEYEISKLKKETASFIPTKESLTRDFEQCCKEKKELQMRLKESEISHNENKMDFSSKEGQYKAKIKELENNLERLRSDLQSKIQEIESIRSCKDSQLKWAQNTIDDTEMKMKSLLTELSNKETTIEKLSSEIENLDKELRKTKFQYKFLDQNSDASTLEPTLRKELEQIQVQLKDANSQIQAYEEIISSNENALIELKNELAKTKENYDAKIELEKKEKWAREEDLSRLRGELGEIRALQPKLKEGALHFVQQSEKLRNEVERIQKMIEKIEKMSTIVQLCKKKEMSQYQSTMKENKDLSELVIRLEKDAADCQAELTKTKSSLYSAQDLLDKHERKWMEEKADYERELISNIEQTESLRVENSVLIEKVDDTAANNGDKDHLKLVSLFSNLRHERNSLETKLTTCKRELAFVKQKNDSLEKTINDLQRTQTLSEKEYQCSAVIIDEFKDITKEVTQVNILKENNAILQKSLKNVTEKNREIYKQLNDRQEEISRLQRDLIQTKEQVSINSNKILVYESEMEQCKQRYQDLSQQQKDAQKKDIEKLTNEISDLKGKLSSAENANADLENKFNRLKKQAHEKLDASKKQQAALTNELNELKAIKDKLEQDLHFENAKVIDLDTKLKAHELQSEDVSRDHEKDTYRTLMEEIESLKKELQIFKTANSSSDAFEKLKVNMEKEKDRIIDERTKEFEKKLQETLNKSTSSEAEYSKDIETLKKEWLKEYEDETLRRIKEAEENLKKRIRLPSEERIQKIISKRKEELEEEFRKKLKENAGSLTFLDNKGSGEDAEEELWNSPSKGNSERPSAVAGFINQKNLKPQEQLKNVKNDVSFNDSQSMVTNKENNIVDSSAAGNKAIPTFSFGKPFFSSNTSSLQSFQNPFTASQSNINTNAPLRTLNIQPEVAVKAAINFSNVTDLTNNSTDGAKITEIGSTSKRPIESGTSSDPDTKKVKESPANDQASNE
UniProt P39685: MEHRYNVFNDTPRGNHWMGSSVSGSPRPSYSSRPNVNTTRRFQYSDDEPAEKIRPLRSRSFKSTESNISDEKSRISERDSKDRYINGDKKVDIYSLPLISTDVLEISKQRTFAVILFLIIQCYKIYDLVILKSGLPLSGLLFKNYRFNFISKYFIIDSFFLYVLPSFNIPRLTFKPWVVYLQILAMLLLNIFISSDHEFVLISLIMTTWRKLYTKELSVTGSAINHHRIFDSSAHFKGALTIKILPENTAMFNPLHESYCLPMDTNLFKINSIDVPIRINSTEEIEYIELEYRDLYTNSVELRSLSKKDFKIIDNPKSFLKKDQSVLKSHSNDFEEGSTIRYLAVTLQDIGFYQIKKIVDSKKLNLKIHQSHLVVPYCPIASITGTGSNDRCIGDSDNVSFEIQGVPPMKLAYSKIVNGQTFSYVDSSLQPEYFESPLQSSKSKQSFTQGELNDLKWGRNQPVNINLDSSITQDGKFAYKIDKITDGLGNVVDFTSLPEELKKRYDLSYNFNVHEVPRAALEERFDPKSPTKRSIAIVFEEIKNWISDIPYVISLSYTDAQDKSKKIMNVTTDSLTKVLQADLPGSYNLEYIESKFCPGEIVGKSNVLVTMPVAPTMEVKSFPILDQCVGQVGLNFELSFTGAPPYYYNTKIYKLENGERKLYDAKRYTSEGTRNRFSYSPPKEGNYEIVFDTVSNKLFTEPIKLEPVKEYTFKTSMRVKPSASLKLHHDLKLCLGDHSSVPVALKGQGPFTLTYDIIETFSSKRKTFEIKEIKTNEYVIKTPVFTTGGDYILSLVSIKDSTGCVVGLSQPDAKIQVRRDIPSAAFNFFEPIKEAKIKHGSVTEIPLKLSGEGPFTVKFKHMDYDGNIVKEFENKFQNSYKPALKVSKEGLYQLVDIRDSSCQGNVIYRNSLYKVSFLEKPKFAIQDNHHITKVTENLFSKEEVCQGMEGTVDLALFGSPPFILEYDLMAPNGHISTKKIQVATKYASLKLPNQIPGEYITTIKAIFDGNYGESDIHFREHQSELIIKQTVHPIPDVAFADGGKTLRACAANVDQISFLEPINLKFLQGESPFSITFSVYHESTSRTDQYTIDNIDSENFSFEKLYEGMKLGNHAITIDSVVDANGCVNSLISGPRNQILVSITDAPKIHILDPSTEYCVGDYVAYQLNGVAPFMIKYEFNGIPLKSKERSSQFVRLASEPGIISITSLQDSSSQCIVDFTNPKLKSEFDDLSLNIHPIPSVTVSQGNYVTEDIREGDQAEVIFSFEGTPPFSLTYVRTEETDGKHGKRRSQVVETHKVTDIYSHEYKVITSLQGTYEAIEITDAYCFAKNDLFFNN

These are yes or no findings as the source states them, for the method shown. In cells and extracts the contact can be indirect. Here binding means that the protein was enriched with, or labelled near, the bait; the list need not be complete. For some of these results: Tags and fused reporters may be left off the sequences shown.

The target in test [1] is T1, Brl1-S-TEV-ZZ (endogenously tagged Brl1) (S. cerevisiae) (UniProt P38770).
T1 sequence: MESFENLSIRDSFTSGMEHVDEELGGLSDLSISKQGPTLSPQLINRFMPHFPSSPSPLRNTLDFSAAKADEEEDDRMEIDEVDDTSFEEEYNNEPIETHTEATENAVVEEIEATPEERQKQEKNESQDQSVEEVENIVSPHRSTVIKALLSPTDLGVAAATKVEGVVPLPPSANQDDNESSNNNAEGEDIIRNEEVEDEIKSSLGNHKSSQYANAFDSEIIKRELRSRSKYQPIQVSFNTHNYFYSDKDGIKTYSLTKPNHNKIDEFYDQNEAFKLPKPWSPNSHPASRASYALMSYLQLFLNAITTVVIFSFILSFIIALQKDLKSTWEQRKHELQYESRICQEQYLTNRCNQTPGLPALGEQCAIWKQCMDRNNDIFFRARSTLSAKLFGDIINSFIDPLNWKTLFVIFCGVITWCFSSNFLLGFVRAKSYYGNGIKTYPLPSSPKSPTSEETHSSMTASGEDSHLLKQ
The test can be described thus: affinity purification with mass spectrometry; endogenously tagged Brl1-S-TEV-ZZ captured from yeast lysate on IgG Dynabeads, 30 min at 4°C; 20 mM HEPES pH 7.5, 50 mM KOAc, 20 mM NaCl, 2 mM MgCl2, 1 mM DTT, 10% glycerol, 0.5% Triton X-100, 0.1% Tween-20; unlabeled (label-free) and after pulse labeling with heavy lysine (KARMA; 30, 60, 90 min); DIA MS.

The target in test [2] is Nup170-S-TEV-ZZ (endogenously tagged Nup170) (S. cerevisiae) (UniProt P38181). The experiment in a line: affinity purification with mass spectrometry; endogenously tagged Nup170-S-TEV-ZZ captured from lysate of Brl1-AID cells on IgG Dynabeads, 30 min at 4°C, same buffers; cells pulse labeled with heavy lysine and treated with auxin (500 µM) or ethanol for 4, 4.5 and 5 hr; DIA MS.

With Nup159 (from UniProt P40477 1-1460), the binding entry in test [1] was “binds”.
With Mlp2 (from UniProt P40457 1-1679), the binding result in test [2] is on record as “binds”.
Consider Pom152 (from UniProt P39685 1-1337), for which the binding result in test [1] was “binds”.
With Mlp1 (from UniProt Q02455 1-1875), the binding entry in test [2] is reported as “binds”.
